The values that follow come from US20160009800A1.

Chains of the proteins cited; added tags and fusions are not shown. Residues count along the entry.
UniProt P15208, residues 28-1372: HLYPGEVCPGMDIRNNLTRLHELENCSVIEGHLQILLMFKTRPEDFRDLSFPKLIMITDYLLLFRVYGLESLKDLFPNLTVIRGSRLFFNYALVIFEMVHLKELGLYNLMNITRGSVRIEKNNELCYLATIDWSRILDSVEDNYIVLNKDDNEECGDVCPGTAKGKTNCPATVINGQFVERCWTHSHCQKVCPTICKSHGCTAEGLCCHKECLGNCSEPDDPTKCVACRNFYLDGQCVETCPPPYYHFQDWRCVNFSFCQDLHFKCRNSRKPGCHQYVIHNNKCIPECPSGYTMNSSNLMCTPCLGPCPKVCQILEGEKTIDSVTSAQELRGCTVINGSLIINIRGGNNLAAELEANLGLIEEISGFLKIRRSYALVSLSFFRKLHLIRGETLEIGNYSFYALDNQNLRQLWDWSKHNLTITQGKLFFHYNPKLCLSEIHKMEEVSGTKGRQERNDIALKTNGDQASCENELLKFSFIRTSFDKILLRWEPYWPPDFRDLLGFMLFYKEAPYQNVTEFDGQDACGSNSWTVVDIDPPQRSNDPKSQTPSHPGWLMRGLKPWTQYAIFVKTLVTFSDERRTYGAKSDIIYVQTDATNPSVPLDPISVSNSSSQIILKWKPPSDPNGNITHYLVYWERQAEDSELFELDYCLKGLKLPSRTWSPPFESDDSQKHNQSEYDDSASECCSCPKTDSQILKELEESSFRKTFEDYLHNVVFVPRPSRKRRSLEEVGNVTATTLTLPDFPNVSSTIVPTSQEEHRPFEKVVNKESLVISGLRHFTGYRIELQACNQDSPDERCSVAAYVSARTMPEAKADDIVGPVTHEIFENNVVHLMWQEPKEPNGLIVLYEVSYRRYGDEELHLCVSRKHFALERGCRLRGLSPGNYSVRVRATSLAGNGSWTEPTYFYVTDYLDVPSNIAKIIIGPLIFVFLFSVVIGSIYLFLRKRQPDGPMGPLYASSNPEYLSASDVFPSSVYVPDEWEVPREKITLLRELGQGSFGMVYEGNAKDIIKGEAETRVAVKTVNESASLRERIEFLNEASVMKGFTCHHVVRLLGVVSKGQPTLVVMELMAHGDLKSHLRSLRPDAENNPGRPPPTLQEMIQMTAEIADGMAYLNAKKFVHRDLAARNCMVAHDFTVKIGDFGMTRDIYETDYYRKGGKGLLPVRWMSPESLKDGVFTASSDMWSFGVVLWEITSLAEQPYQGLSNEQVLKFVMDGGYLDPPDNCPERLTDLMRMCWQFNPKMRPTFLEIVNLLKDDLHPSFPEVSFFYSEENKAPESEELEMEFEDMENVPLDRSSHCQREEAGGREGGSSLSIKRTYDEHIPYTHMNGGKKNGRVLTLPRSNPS

Results are given in words; binding and its absence hold for the method and conditions named. Some entries that bind do so weakly or less than the wild type.

In assay [1] the target is rabbit insulin receptor (rabbit). Put plainly: FACS on monocytes of rabbit PBMC and on CHO cells expressing rabbit insulin receptor, without insulin.
Assay [2] concerns the target mouse insulin receptor (mouse) (UniProt P15208). The assay is described as follows: flow cytometry, biotinylated IgG on mINSR-CHOK1 cells.
Assay [3] deals with rabbit insulin receptor (rabbit). Put plainly: FACS on monocytes of rabbit PBMC, without insulin.
The target is the same in assay [4]. Put plainly: FACS on CHO cells expressing rabbit insulin receptor, without insulin.
Assay [5] concerns the target mouse insulin receptor (mouse) (UniProt P15208). The assay is described as follows: FACS on mouse INSR; conditions not given on the sheet [cont'd].
Assay [6] shares this target. The assay is described as follows: FACS on mouse INSR; conditions not given on the sheet.

B1: Ab080 (antibody, IgG2, V domains shown)
VH: EVQLVESGGGVVQPGGSLRLSCAASGFTFDDYAMHWVRQAPGKGLEWVSLISWDGGSTYYADSVKGRFTISRDNSKNSLYLQMNSLRAEDTALYYCAKARGVVIIDYWGQGTLVTVSS
VL: EIVLTQSPGTLSLSPGERATLSCRASQSLSSSFLAWYQQKPGQAPRLLIYGAGSRATGVPDRFSGSGYGTDFSLTISRLELEDFAVYYCQQYDRSQITFGQGTRLEIK
On to B1, for which, in assay [1], the binding entry was “binds”.

B2: Ab077 (antibody, IgG2, V domains shown)
VH: EVQLVESGGGVVQPGGSLRLSCAASGFTFSSYWMTWVRQAPGKGLEWVANINQDGSEKHYVDSVKGRFTISRDNAKNSLYLQMNSLRGEDTAVYYCARGRGAWAFDYWGQGTLVTVSS
VL: DIQMTQSPSSLSASVGDRVTITCRASQGISSWLAWYQQKPGKAPKLLIYAASSLQSGVPSRFSGSGSGTDFTLTISSLQPEDFATYYCQQANSFPITFGQGTRLEIK
On to B2, for which, in assay [2], the binding entry is reported as “binds”.

B3: Ab079 (antibody, IgG2, V domains shown)
VH: QMQLVQSGAEMKKPGASVKVSCKASGYSFSDYGITWVRQAPGQGPEWMGWISGYNGNTNYAQKFQDRVTMTTDTSTSTAYMELRSLKSDDTAVYFCARARGVWMFDNWGQGTLVTVSS
VL: AIRMTQSPSTLSASVGDRVTITCRASQSISTWLAWYQQKPGKAPKLLIYTTSTLESGVPSRFSGSRSGTEFTLTISSLQPDDFATYYCQQYNSYPLTFGGGTKVEIK
Turning to B3, the binding result in assay [3] was “binds”.

B4: Ab037 (antibody, V domains shown)
VH: EVQLLESGGGLVQPGGSLRLSCAASGFTFSSYEMNWVRQAPGKGLEWVSSISSSSRYADVANSVVGRFTISRDNSKNTLYLQMNSLRAEDTAVYYCARGEWLDHFDYWGQGTLVTVSS
VL: QSVLTQPPSASGTPGQRVTISCSGSSSNIGNSAVNWYQQLPGTAPKLLIYDNNKRPSGVPDRFSGSKSGTSASLAISGLRSEDEADYYCQVWDSGTAVFGGGTKLTVLG
Take B4: in assay [1], the binding result was “binds”.

B5: Ab062 (antibody, IgG2, V domains shown)
VH: QVQLQQWGAGLLKPSETLSLTCAVYGGSFSGYYWSWIRQPPGKGLEWIGEINHSGSTNYNPSLKSRVTISVDTSKNQFSLKLSSVTAADTAVYYCARGPSGWYIREFDYWGQGTLVTVSS
VL: QSVLTQPPSVSGAPGQRVTISCTGSSSNIGAGYDVHWYQQLPGTAPKLLIYGNSNRPSGVPDRFSGSKSGTSASLAITGLQAEDEADYYCQSYDSSLSGSGVFGGGTKVTVL
As for B5, the binding entry in assay [1] is on record as “binds”.

B6: Ab058 (antibody, V domains shown)
VH: QLQLQQWGAGLLKPSETLSLTCAVYSGSFSGYYYSWIRQSPGRGLEWIGDISHTGSTDYNPSLKTRVTISVDTSKNQFSLNLNSVTAADTAVYYCARDAPKGGSGLYLFDYWGQGTLVTVSS
VL: QSVLTQPPSVSGAPGQRVTISCTGSRSNIGADHDVHWYQQIPGRAPKLLIYGNSNRPSGVPDRFSGSRSGTSASLAITGLQAEDEADYYCQSYDNSLSGSVFGGGTKLTVL
Turning to B6, in assay [4], the binding entry is reported as “binds”.

B7: Ab050 (antibody, IgG2, V domains shown)
VH: QVQLVQSGAELKKPGATVKISCKVSGYTFGDYHMHWVKQAPGKGLEWMGLVDPENGETEYGEKFQDRITMAADTSTDTAYMELSSLRSEDTAVYYCARSPSSSGYFRVDGFDIWGQGTMVTVSS
VL: NFMLTQPHSVSESPGKTVSISCTGSSGSIGSNYVQWYQQRPGSAPTTVIYEDNQRPSGVPDRFSGSIDSSSNSASLTISGLKTEDEADYYCQSYYNSNVVFGGGTKLTVL
As to B7, the binding entry in assay [4] is on record as “binds”.

B8: Ab048 (antibody, V domains shown)
VH: EVQLLESGGGLVQPGGSLRLSCAASGFTFSSNYMSWVRQAPGKGLEWVSAISGSGGSTYYADSVKGRFTISRDNSKNTLYLQMNSLRAEDTAVYYCARVGSSGWYYFDYWGQGTLVTVSS
VL: QSVLTQPPSASGTPGQRVTISCSGISSNIGNNFVSWYQQLPGTAPKLLIYGNSNRPSGVPDRFSGSKSGTSASLAISGLRSEDEADYYCAAWDDSPRGPVFGGGTKLTVLG
For the molecule B8, in assay [5], the binding entry is listed as “binds”.

B9: Ab064 (antibody, IgG2, V domains shown)
VH: QVQLVQSGAEVKKPGESLKISCKGSGFSFPSYWIGWVRQMPGKGLELVGIIYPGDSDIRYSPSFQGQVTISADTSISTVYLQWSSLQTTDTATYYCARGGFNWFDPWGQGTLVTVSS
VL: QAVVTQEPSLTVSPGGTVTLTCASSTGAVTSGYYPNWFQQKPGQAPRALIYSTSNKHSWTPARFSGSLLGGKAALTLSGVQPEDEAEYYCLLYYGGAQPWVFGGGTQLTVL
For B9, the binding entry in assay [2] is given as “binds”.

B10: Ab052 (antibody, IgG2, V domains shown)
VH: EVQLVQSGAEVKKPGESLKISCKGSGYRFTSYWIGWVRQMPGRGLEWMGIIYPGDSDTRYSPSFQGQVTISVDKSISTAYLQWSSLKASDTAMYYCATHHASGRGLDPWGQGTLVTVSS
VL: QAMLTQPASLSASPGASASLTCTLRSGINVVAYNIYWYRQKSGSPPQSVLRYKSDSDSERDSGVPSRFSGSKDVSANAGILLISGLQSEDEADYYCLIWHNSAWVFGGGTQLTVL
As to B10, in assay [4], the binding result is recorded as “binds”.

B11: Ab033 (antibody, V domains shown)
VH: EVQLLESGGGLVQPGGSLRLSCAASGFTFTNYNMIWVRQAPGKGLEWVSGVSWNGSRTHYADSVKGRFTISRDNSKNTLYLQMNSLRAEDTAVYYCARERGSWDTTGYYNYYYYGMDVWGQGTLVTVSS
VL: QSVLTQPPSASGTPGQRVTISCTGSSSNIGAGYDVHWYQQLPGTAPKPLIYGNSNRPSGVPDRFSGSKSGTSASLAISGLRSEDEADYYCTSYTGNNQFVIFGGGTKLTVLG
With B11, the binding result in assay [6] was “binds”.
